In article PMC5529656:
These are yes or no findings as the source states them, for the method shown. In cells and extracts the contact can be indirect. Some results given as binding are weak or reduced against the parent protein; the word gives no strength.

Sequences of proteins named here, by UniProt entry; tags and fusion partners are left off. Residues count along the entry.
UniProt O00206, residues 24-839: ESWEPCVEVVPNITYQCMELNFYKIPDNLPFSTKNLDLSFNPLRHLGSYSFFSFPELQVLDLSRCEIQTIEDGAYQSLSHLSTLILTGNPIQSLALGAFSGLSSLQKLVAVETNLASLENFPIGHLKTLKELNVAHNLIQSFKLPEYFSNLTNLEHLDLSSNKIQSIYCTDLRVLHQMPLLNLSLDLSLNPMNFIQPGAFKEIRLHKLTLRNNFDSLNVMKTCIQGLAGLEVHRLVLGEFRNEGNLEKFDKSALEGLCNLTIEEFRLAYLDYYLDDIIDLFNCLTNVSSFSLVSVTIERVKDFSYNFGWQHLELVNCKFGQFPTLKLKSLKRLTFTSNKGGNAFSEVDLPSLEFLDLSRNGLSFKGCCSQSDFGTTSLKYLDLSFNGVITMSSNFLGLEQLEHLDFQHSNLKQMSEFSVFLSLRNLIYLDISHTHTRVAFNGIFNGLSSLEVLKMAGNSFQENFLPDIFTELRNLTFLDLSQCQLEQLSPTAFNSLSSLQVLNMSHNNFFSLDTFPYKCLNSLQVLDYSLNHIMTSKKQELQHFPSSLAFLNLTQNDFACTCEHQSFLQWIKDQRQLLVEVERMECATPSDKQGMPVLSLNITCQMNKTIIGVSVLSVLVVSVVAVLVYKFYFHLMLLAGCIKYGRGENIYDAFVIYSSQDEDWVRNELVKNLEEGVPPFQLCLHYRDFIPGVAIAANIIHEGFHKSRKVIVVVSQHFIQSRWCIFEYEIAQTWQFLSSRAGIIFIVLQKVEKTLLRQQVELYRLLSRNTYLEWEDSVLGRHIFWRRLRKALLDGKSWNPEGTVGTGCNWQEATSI
UniProt P25105: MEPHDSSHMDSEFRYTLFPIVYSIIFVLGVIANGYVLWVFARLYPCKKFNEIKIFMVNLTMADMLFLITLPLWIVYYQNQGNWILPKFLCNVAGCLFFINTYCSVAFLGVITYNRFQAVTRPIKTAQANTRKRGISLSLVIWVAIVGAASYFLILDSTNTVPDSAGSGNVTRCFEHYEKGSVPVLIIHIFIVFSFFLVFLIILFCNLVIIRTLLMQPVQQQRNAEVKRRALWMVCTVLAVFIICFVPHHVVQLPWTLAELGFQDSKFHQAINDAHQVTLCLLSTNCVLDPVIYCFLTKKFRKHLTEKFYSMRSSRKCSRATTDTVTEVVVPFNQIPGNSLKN

Columns and labels:
[1] = target: toll-like receptor 4 (human (endogenous in HUVECs)) (UniProt O00206); test: co-IP; HUVECs exposed to 30 mM glucose for 8 h; lysates (1% Triton X-100 buffer) incubated with anti-PAFR or anti-TLR4 antibody overnight at 4°C, protein A/G Sepharose beads, immunoblot for PAFR and TLR4; nonimmune IgG as negative control
[2] = target: platelet-activating factor receptor (human (endogenous in HUVECs)) (UniProt P25105); test: as above

binding [1] | binding [2] | Substance
binds |  | platelet-activating factor receptor (from UniProt P25105 1-342)
 | binds | toll-like receptor 4 (from UniProt O00206 24-839)
